Measurements reported in PubChem BioAssay AID720505 (Drosophila RNAi Screening Center, 2013).

- Test: 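Genes needed for store-operated calcium entry in fly cells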 (primary screen)
- System: Drosophila S2R+ cells
- Reagents: long dsRNA against Drosophila genes
- Conditions: thapsigargin (2 µM) in calcium-free buffer to empty internal stores, then 2 mM calcium added back
- Measured: 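Stores emptied by 2 µM thapsigargin without calcium, then 2 mM calcium re-added; fluo-4 fluorescence followed by FLIPR in 384-well plates, per-well averaged endpoint, raw; two screen passes, some wells retested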
- Scale: calcium signal and retest calcium signal: higher = more calcium entry after store depletion
- Hit rule: 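About 1500 genes called as lowering calcium entry, by varying amounts, judged against per-plate control wells with STIM1 as positive and Rho1 as negative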
- Calls: active = called as lowering calcium entry; inactive = not called
The deposit covers about 20,000 reagents; below is an unselected part of those that have a named target and a result. Of all reagents, about 2,100 (10%) were called active. 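Raw plate signals without normalisation; calls rest on control-based scores that were not deposited; replicate 2 separates called from uncalled poorly.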 No sequences are given here. The record does not give: the amount of reagent, the time to read-out.

CG8379 [DRSC16414] → calcium signal, replicate 1 = 122; calcium signal, replicate 2 = 161; activity call = inactive
CG4198 [DRSC18354] → calcium signal, replicate 1 = 147; calcium signal, replicate 2 = 90.3; activity call = inactive
Marf1 (Meiosis regulator and mRNA stability factor 1) [DRSC03747] → calcium signal, replicate 1 = 167; calcium signal, replicate 2 = 89.2; activity call = inactive
Marf1 (Meiosis regulator and mRNA stability factor 1) [DRSC03774] → calcium signal, replicate 1 = 87.1; calcium signal, replicate 2 = 8940; activity call = inactive

Reprinted from the listing, 2 entries:
CG8379 [DRSC16414] → calcium signal, replicate 1 = 122; calcium signal, replicate 2 = 161; activity call = inactive
CG4198 [DRSC18354] → calcium signal, replicate 1 = 147; calcium signal, replicate 2 = 90.3; activity call = inactive

More reagents follow:
CG30151 [DRSC05888] → calcium signal, replicate 1 = 44.9; calcium signal, replicate 2 = 121; activity call = active
Dyro (Dpt-YFP repressor by overexpression) [DRSC10598] → calcium signal, replicate 1 = 63.9; calcium signal, replicate 2 = 105; activity call = active
OtopLa (Otopetrin-like a) [DRSC17787] → calcium signal, replicate 1 = 100; calcium signal, replicate 2 = 77.8; retest calcium signal, replicate 1 = 8255; retest calcium signal, replicate 2 = 141; activity call = inactive
OtopLa (Otopetrin-like a) [DRSC18133] → calcium signal, replicate 1 = 190; calcium signal, replicate 2 = 88.9; activity call = inactive
OtopLa (Otopetrin-like a) [DRSC23226] → calcium signal, replicate 1 = 124; calcium signal, replicate 2 = 150; activity call = inactive
U4-U6-60K (U4-U6 small nuclear riboprotein factor 60K) [DRSC10624] → calcium signal, replicate 1 = 124; calcium signal, replicate 2 = 68.8; activity call = inactive
haf (hattifattener) [DRSC00381] → calcium signal, replicate 1 = 176; calcium signal, replicate 2 = 140; activity call = inactive
HBS1 [DRSC08544] → calcium signal, replicate 1 = 143; calcium signal, replicate 2 = 116; activity call = inactive
